Columns and labels:
[1] = test system: CLL samples compared to a panel of normal tissues; assay: Identification and label-free relative LC-MS quantitation of HLA-presented peptides (presentation profiles and scores); set-up: species or system human; key: very highly over-presented on tumors compared to a panel of normal tissues (+++); highly over-presented on tumors compared to a panel of normal tissues (++); over-presented on tumors compared to a panel of normal tissues (+); conditions: presentation score; over-presentation on tumors (CLL samples) compared to a panel of normal tissues
[2] = test system: other tumor types (e.g. non-Hodgkin lymphoma, lung cancer); assay: Presentation of the peptides on additional tumor types (LC-MS, Tables 4A/4B, FIG. 1); set-up: species or system human; conditions: for Other relevant organs/diseases: Table 4A: additional tumor types where the peptide was over-presented on more than 5% of the measured tumor samples, or presented on more than 5% with ratio of geometric means tumor vs normal tissues larger than 3; for Additional Entities: Table 4B: additional tumour types with over-presentation (including specific presentation) on more than 5% of the measured tumour samples, or presentation on more than 5% with ratio of geometric means tumour vs normal tissues larger than 3, extended normal tissue panel

Substance	Peptide Presentation [1]	Other relevant organs/diseases [2]	Additional Entities [2]
181 (VLLSIPFVSV; listed as Homo sapiens) [compound 181]	+	HCC, NHL	Melanoma, Gallbladder Cancer, Bile Duct Cancer
122 (LLIPVVPGV; listed as Homo sapiens) [compound 122]	++	NSCLC, NHL	
155 (SLMLEVPAL; listed as Homo sapiens) [compound 155]	+++	HCC, NHL	
66 (SLAGGLDDMKA; listed as Homo sapiens) [compound 66]	+++	NHL	
179 (VLLGLEMTL; listed as Homo sapiens) [compound 179]	+++	NHL, Esophageal Cancer	HNSCC
185 (VMDDQRDLI; listed as Homo sapiens) [compound 185]	+	AML	
329 (VLMDGSVKL; listed as Homo sapiens) [compound 329]	+	NHL	
234 (GLDDAEYAL; listed as Homo sapiens) [compound 234]	+	NHL, AML, Melanoma, Urinary bladder cancer	Uterine Cancer, HNSCC
263 (SQWEDIHVV; listed as Homo sapiens) [compound 263]	++	NHL, AML	
368 (QLQPTDALLCV; listed as Homo sapiens) [compound 368]	+		Uterine Cancer
176 (VLAEQNIIPSA; listed as Homo sapiens) [compound 176]	+++		NSCLC, SCLC, GC, Melanoma, NHL, HNSCC
284 (LLSAAEPVPA; listed as Homo sapiens) [compound 284]	+++	NHL	
57 (GLSEISLRL; listed as Homo sapiens) [compound 57]	+++	NHL, AML, Melanoma	
7 (ALLERTGYTL; listed as Homo sapiens) [compound 7]	+++	HCC, NHL	Uterine Cancer, AML
45 (FLPELPADLEA; listed as Homo sapiens) [compound 45]	++	NHL, Melanoma	NSCLC, Uterine Cancer, OC
323 (SLDLFNCEV; listed as Homo sapiens) [compound 323]	+++	NHL	Uterine Cancer, AML
200 (YMFEEVPIVI; listed as Homo sapiens) [compound 200]	+++	NSCLC, SCLC, CRC, HCC, NHL, Melanoma, Esophageal Cancer, OC, Urinary bladder cancer, Gallbladder Cancer, Bile Duct Cancer	BRCA, HNSCC
364 (KMDWIFHTI; listed as Homo sapiens) [compound 364]	+	Urinary bladder cancer	
100 (ILNNEVFAI; listed as Homo sapiens) [compound 100]	+	NHL, AML	
174 (VLAELPIIVV; listed as Homo sapiens) [compound 174]	+++		NSCLC, OC
133 (YLLSGDISEA; listed as Homo sapiens) [compound 133]	+++	NHL	
201 (YQLELHGIEL; listed as Homo sapiens) [compound 201]	+++	Esophageal Cancer	NHL
365 (LISPLLLPV; listed as Homo sapiens) [compound 365]	++	NHL, AML, Melanoma, Urinary bladder cancer	SCLC, Uterine Cancer, HNSCC
258 (RLDYITAEI; listed as Homo sapiens) [compound 258]	++	RCC, NHL, AML, Melanoma	GC, Uterine Cancer
255 (YLFEEAISM; listed as Homo sapiens) [compound 255]	+	NHL	
92 (ILEPLNPLL; listed as Homo sapiens) [compound 92]	+++	NHL	
198 (YLTFLPAEV; listed as Homo sapiens) [compound 198]	+++		BRCA, Uterine Cancer

Substance	Peptide Presentation [1]	Other relevant organs/diseases [2]	Additional Entities [2]
382 (YLLPLLQRL; listed as Homo sapiens) [compound 382]	+++	NHL, AML	
148 (SIVASLITV; listed as Homo sapiens) [compound 148]	+++	NHL, AML	
21 (ALWAGLLTL; listed as Homo sapiens) [compound 21]	+++	NHL	
141 (QILSEIVEA; listed as Homo sapiens) [compound 141]	++	NHL, Melanoma	Uterine Cancer
1 (AIPPSFASIFL; listed as Homo sapiens) [compound 1]	+++	NHL	
170 (TLTFRVETV; listed as Homo sapiens) [compound 170]	+++	NHL, Melanoma	
192 (YIQEYLTLL; listed as Homo sapiens) [compound 192]	+++	NHL	SCLC, Urinary Bladder Cancer, AML, HNSCC
9 (ALCDTLITV; listed as Homo sapiens) [compound 9]	+++	NHL	
25 (ATYSGLESQSV; listed as Homo sapiens) [compound 25]	+	Melanoma	AML
165 (TLDDDLDTV; listed as Homo sapiens) [compound 165]	+++	NHL	
237 (GLQENLDVVV; listed as Homo sapiens) [compound 237]	+	SCLC, NHL, Melanoma, Uterine Cancer	AML
2 (ALHRPDVYL; listed as Homo sapiens) [compound 2]	+++	NHL	
70 (FVPDTPVGV; listed as Homo sapiens) [compound 70]	++	NHL	
332 (VMIQHVENL; listed as Homo sapiens) [compound 332]	+++	NHL	
172 (TLYDMLASI; listed as Homo sapiens) [compound 172]	+++	CRC, NHL, AML, Melanoma	SCLC, Urinary Bladder Cancer, Uterine Cancer
209 (ILQAELPSL; listed as Homo sapiens) [compound 209]	++	NHL	
208 (ILLKTEGINL; listed as Homo sapiens) [compound 208]	++	NHL, BRCA, OC, Urinary bladder cancer	Melanoma, HNSCC
278 (YLDDLLPKL; listed as Homo sapiens) [compound 278]	++	PC, NHL	
358 (FLTDYLNDL; listed as Homo sapiens) [compound 358]	+	NHL	AML
80 (VLIEDELEEL; listed as Homo sapiens) [compound 80]	+++	NHL	
353 (ATPMPTPSV; listed as Homo sapiens) [compound 353]	++	SCLC, NHL	BRCA, Uterine Cancer, Gallbladder Cancer, Bile Duct Cancer, AML, HNSCC
357 (FLIQEIKTL; listed as Homo sapiens) [compound 357]	++	NHL, OC, Urinary bladder cancer	HCC
145 (SALDTITTV; listed as Homo sapiens) [compound 145]	+++	NHL	NSCLC, RCC, GC, HCC, AML
249 (LLPTGVFQV; listed as Homo sapiens) [compound 249]	+	Urinary bladder cancer	
225 (ILQERELLPV; listed as Homo sapiens) [compound 225]	+	NHL, Melanoma, OC, Urinary bladder cancer	
215 (VMQDIVYKL; listed as Homo sapiens) [compound 215]	+	NHL, Esophageal Cancer, Urinary bladder cancer	HNSCC
304 (LAIVPVNTL; listed as Homo sapiens) [compound 304]	+++	AML	

— patent US10064928B2, “Peptides and combination of peptides for use in immunotherapy against CLL and other cancers” (IMMATICS BIOTECHNOLOGIES GMBH, priority 2015, dated 2018)
